Assay results taken from article PMC8225996 (Frontiers in Cardiovascular Medicine, 2021).
No constants are given. Whether binding was seen depends on the method and setting. Binding seen in cells or lysates may run through a third protein. Some entries that bind do so weakly or less than the wild type.

The chains behind the UniProt entries cited, without tags or fusion partners. Residues count along the entry.
UniProt Q8R0I0, residues 18-805: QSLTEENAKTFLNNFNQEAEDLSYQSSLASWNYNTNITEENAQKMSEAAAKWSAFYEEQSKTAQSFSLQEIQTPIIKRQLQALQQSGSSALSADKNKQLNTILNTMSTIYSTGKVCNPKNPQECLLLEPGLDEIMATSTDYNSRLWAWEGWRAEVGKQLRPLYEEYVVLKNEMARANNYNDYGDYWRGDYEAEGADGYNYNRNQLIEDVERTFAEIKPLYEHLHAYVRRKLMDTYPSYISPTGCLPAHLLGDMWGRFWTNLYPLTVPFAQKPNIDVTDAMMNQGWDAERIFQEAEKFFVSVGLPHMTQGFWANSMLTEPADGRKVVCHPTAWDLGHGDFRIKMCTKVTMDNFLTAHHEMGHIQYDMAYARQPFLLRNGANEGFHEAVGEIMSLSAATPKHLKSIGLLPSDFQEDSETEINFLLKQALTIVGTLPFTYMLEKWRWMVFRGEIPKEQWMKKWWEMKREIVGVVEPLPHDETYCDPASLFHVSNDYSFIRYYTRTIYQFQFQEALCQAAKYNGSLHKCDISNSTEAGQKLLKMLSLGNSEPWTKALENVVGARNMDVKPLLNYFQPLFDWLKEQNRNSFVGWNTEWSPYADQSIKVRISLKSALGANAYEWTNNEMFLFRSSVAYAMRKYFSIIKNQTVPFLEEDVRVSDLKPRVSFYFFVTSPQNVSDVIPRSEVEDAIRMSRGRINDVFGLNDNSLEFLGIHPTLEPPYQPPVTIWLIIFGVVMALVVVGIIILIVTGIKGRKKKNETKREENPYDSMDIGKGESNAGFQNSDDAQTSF
UniProt P23242: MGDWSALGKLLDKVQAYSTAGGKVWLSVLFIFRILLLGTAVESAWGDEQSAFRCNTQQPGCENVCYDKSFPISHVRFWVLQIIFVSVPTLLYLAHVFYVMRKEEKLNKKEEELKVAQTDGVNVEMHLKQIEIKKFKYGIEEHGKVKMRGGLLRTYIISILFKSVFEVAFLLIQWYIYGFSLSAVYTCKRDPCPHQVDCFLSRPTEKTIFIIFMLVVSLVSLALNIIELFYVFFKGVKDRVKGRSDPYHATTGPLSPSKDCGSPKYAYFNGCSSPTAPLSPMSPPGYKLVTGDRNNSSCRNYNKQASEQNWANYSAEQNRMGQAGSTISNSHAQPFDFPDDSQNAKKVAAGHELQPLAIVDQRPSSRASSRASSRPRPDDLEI

B1: PECAM-1 (protein, UniProt Q08481 18-727)
chain: EENSFTINSIHMESLPSWEVMNGQQLTLECLVDISTTSKSRSQHRVLFYKDDAMVYNVTSREHTESYVIPQARVFHSGKYKCTVMLNNKEKTTIEYEVKVHGVSKPKVTLDKKEVTEGGVVTVNCSLQEEKPPIFFKIEKLEVGTKFVKRRIDKTSNENFVLMEFPIEAQDHVLVFRCQAGILSGFKLQESEPIRSEYVTVQESFSTPKFEIKPPGMIIEGDQLHIRCIVQVTHLVQEFTEIIIQKDKAIVATSKQSSEAVYSVMAMVEYSGHYTCKVESNRISKASSIMVNITELFPKPKLEFSSSRLDQGELLDLSCSVSGTPVANFTIQKEETVLSQYQNFSKIAEESDSGEYSCTAGIGKVVKRSGLVPIQVCEMLSKPSIFHDAKSEIIKGHAIGISCQSENGTAPITYHLMKAKSDFQTLEVTSNDPATFTDKPTRDMEYQCRADNCHSHPAVFSEILRVRVIAPVDEVVISILSSNEVQSGSEMVLRCSVKEGTSPITFQFYKEKEDRPFHQAVVNDTQAFWHNKQASKKQEGQYYCTASNRASSMRTSPRSSTLAVRVFLAPWKKGLIAVVVIGVVIATLIVAAKCYFLRKAKAKQKPVEMSRPAAPLLNSNSEKISEPSVEANSHYGYDDVSGNDAVKPINQNKDPQNMDVEYTEVEVSSLEPHQALGTRATETVYSEIRKVDPNLMENRYSRTEGSLNGT
B2: JAM-A (protein, UniProt O88792 27-300)
chain: KGSVYTAQSDVQVPENESIKLTCTYSGFSSPRVEWKFVQGSTTALVCYNSQITAPYADRVTFSSSGITFSSVTRKDNGEYTCMVSEEGGQNYGEVSIHLTVLVPPSKPTISVPSSVTIGNRAVLTCSEHDGSPPSEYSWFKDGISMLTADAKKTRAFMNSSFTIDPKSGDLIFDPVTAFDSGEYYCQAQNGYGTAMRSEAAHMDAVELNVGGIVAAVLVTLILLGLLIFGVWFAYSRGYFERTKKGTAPGKKVIYSQPSTRSEGEFKQTSSFLV
B3: Rab5a (natural protein, UniProt Q9CQD1 1-215, looked up)
chain: MANRGATRPNGPNTGNKICQFKLVLLGESAVGKSSLVLRFVKGQFHEFQESTIGAAFLTQTVCLDDTTVKFEIWDTAGQERYHSLAPMYYRGAQAAIVVYDITNEESFARAKNWVKELQRQASPNIVIALSGNKADLANKRAVDFQEAQSYADDNSLLFMETSAKTSMNVNEIFMAIAKKLPKNEPQNPGANSARGRGVDLTEPAQPARSQCCSN
notes: Rab5a, Rab GTPase of the endolysosomal trafficking pathway; endogenous in mouse brain microvascular endothelial cells; source: endogenous, mouse primary brain microvascular endothelial cells (C57BL/6 control; db/db diabetic), in lysate

Columns and labels:
[1] = biological target: T1, Rab5a (mouse (endogenous in primary brain microvascular endothelial cells)) (UniProt Q9CQD1); experiment: co-IP; Rab5a antibody (2 ug) with 150 ug lysate of untreated control endothelial cells; Catch and Release spin columns, 18 h at 4 C; Western blot for the partners
T1 sequence: B3 chain

[2] = biological target: T1, Rab5a (mouse (endogenous in primary brain microvascular endothelial cells)); experiment: co-IP; Rab5a antibody (2 ug) with 150 ug lysate of control endothelial cells treated with 10 ug/ml Spike for 12 h; Catch and Release spin columns, 18 h at 4 C; Western blot for the partners
[3] = biological target: Angiotensin converting enzyme 2 (mouse (endogenous in primary brain microvascular endothelial cells)) (UniProt Q8R0I0); experiment: co-IP; ACE2 antibody (2 ug) with 150 ug lysate of untreated control endothelial cells; Catch and Release spin columns, 18 h at 4 C; blots probed for Rab5a
[4] = biological target: Angiotensin converting enzyme 2 (mouse (endogenous in primary brain microvascular endothelial cells)) (UniProt Q8R0I0); experiment: co-IP; control and diabetic (db/db) endothelial cells treated with non-targeting or Rab5a siRNA for 24 h; precipitating antibody not stated for this experiment

Molecule | binding [1] | binding [2] | binding [3] | binding [4]
Angiotensin converting enzyme 2 (from UniProt Q8R0I0 18-805) (receptor) | no binding (condition: cells without Spike treatment) | binds |  | 
Connexin-43 (from UniProt P23242 1-382) | binds |  |  | 
B1 | no binding (condition: cells without Spike treatment) | binds |  | 
B2 |  | binds |  | 
B3 |  |  | binds weakly | binds
